Laboratory results: PubChem BioAssay AID590 (National Center for Advancing Translational Sciences (NCATS), 2007)
Screen size: about 59,000 compounds; about 6,500 (11%) were called active. The inconclusive results got no clear call from the source; some entries with a clear call stand among them for comparison. No stated cut-off is given here; in the data, active means max dye-equivalent concentration above about 10 nM; inconclusive means mostly about 1.1 nM to 9.6 nM; inactive means weaker than that.

assay: qHTS Assay for Spectroscopic Profiling in A350 Spectral Region; settings: Compound autofluorescence, 340/450 nm, Alexa 350 dye-equivalents; stronger effect = higher value

Row | SMILES | max dye-equivalent concentration
1 | Cc1cccc(CNc2ncnc3ccc(-c4cccnc4)cc23)c1 | inactive
2 | O=C(CSc1nc2ccccc2s1)NC(=O)NCc1ccco1 | inconclusive: 2 nM
3 | COc1ccc2c(c1)cc(C(=O)O)n2C | inconclusive: 5 nM
4 | COc1ccc(CCNc2nc(-c3ccco3)cc(C(F)(F)F)n2)cc1OC | inactive
5 | Oc1ccccc1/C=N/c1c(-c2ccco2)nc2ccccn12 | active: 930 nM
6 | O=C(NCCOCCOCCNC(=O)c1cccnc1)c1cccnc1 | inconclusive: 2.9 nM
7 | CN(C)C(=O)c1ccc(-c2cncnc2NCCN2CCOCC2)cc1 | inactive
8 | CCC1CCCCN1C(=O)COC(=O)c1ccc(S(=O)(=O)N2CCOCC2)cc1 (configuration not stated) | inconclusive: 2.1 nM
9 | O=C(O)c1cc2c(s1)CCCC2 | inconclusive: 1.2 nM
10 | CC1=C(C(=O)Nc2cccnc2)C(c2cccnc2)n2nc(-c3cccs3)nc2N1 (configuration not stated) | inconclusive: 1.6 nM
11 | CN1CCN(C(=O)c2cc3nc(-c4ccccc4)cc(C(F)(F)F)n3n2)CC1 | active: 19 nM
12 | COc1ccc(N(Cc2cc(=O)[nH]c3ccccc23)C(=O)c2ccco2)cc1 | inconclusive: 1.1 nM
13 | Cc1cccc(NC(=O)CSc2nnc([C@@H]3CCCN3C(=O)OC(C)(C)C)o2)c1C | inconclusive: 1.5 nM
14 | COc1ccc(-n2nc(C(=O)Nc3ccc4c(c3)OCO4)c3ccccc3c2=O)c(OC)c1 | inactive
15 | Cn1c(=O)c2c(nc(N3CCCCCC3)n2CC(O)COc2ccc(Cl)cc2)n(C)c1=O (configuration not stated) | active: 49 nM
16 | Cc1onc(-c2ccccc2)c1C(=O)Nc1ccccc1N1CCOCC1 | inconclusive: 2.3 nM
17 | Cc1ccc(-c2nc(C#N)c(NCc3cccc4c3OCO4)o2)cc1 | inconclusive: 5.3 nM
18 | O=C(C1CCC(=O)N1Cc1ccccc1Cl)N1CCN(c2ccc(F)cc2)CC1 (configuration not stated) | inactive
19 | CCOC(=O)c1sc2ncn(C(C)C(=O)OCC)c(=O)c2c1C (configuration not stated) | inconclusive: 2 nM
20 | CCn1c(CNc2ccc(F)cc2)nnc1SCCN1CCCCC1 | inconclusive: 1.3 nM
21 | O/N=C1\CC(O)Cc2nonc21 (configuration not stated) | active: 21 nM
22 | N#CC(C(=O)NC1CC1)c1nc2ccccc2nc1N1CCN(C/C=C/c2ccccc2)CC1 (configuration not stated) | inconclusive: 9 nM
23 | CCC1(C)Cc2c(C#N)c(N)sc(=S)c2CO1 (configuration not stated) | active: 28 nM

Row | SMILES | max dye-equivalent concentration
24 | COc1ccc(C(=O)N2CCCN(C)CC2)cc1S(=O)(=O)N1CCCc2ccccc21 | inactive
25 | Cc1cnc(C(=O)NCCc2ccc(S(=O)(=O)NC(=O)NC3CCCCC3)cc2)cn1 | inconclusive: 1.1 nM
26 | NC(=O)c1ccccc1NC(=O)CCCN1C(=O)CCC1=O | inconclusive: 2.5 nM
27 | COC(=O)c1[nH]c2cc(C)ccc2c1NC(=O)CN1CCN(c2ccccc2OC)CC1 | inactive
28 | COC(=O)C1=C(CN2CCCc3ccccc32)NC(=O)NC1c1ccc(F)cc1 (configuration not stated) | inconclusive: 4.9 nM
29 | CC(OC(=O)C1CCN(S(=O)(=O)c2ccccc2)CC1)C(=O)Nc1ncc(Cl)cc1Cl (configuration not stated) | inconclusive: 5.9 nM
30 | COc1cc2c(cc1OC)C(=NCCC(=O)O)NC(C)(C)C2 | inactive
31 | O=c1[nH]cnc2nc(-c3ccccc3)c(-c3ccccc3)nc12 | active: 1300 nM
32 | CCCCSc1c(C)c2cc3c(cc2[nH]c1=O)OCO3 | active: 85 nM
33 | CCCCCNC(=O)C(C#N)c1nc2ccccc2nc1N1CC(C)OC(C)C1 (configuration not stated) | inconclusive: 3.5 nM
34 | Cc1cc(N2CCOCC2)nc(SCC(=O)c2ccc(Cl)cc2)n1 | inactive
35 | CCOC(=O)CSc1nc2c(sc3ccccc32)c(=O)n1CCCN1CCOCC1 | active: 20 nM
36 | COCC(=O)N(Cc1cc2cc(OC)ccc2[nH]c1=O)c1ccccc1 | active: 450 nM
37 | COc1ccc(CCNC(=O)CSc2nc(-c3ccco3)cc(C(F)(F)F)n2)cc1 | inactive
38 | COc1ccc(NS(=O)(=O)c2ccc3c(c2)Cc2ccccc2-3)cn1 | inactive
39 | CC1CC(c2ccccc2)n2nc(NC(=O)c3cccs3)nc2N1 (configuration not stated) | inconclusive: 2.3 nM
40 | Oc1ccc(Br)cc1/C=N/n1cnc2ccccc21 | inconclusive: 3.1 nM
41 | Cc1ccc(C)n1-c1cccc(N)c1 | inconclusive: 3.4 nM
42 | CCOC(=O)N1CCC(NC(=O)c2cccn3c(=O)c4cc(Br)ccc4nc23)CC1 | inconclusive: 6.5 nM
43 | CCc1ccccc1NC(=O)CN(C)Cc1nc(N)nc(Nc2ccccc2C)n1 | inconclusive: 2.7 nM
44 | O=C(CCc1ccccc1)Nc1ncc2c(n1)CCCC2=O | inconclusive: 1.6 nM
45 | COC(=O)c1c(NC(=O)CCc2ccc(C)o2)sc(C)c1C | inactive
46 | O=C(O)C1CC=C(Cl)CC1C(=O)NCC1OCCc2ccccc21 (configuration not stated) | inconclusive: 1.4 nM

Entries shown so far with bromine (two):
Row | SMILES | max dye-equivalent concentration
40 | Oc1ccc(Br)cc1/C=N/n1cnc2ccccc21 | inconclusive: 3.1 nM
42 | CCOC(=O)N1CCC(NC(=O)c2cccn3c(=O)c4cc(Br)ccc4nc23)CC1 | inconclusive: 6.5 nM

(more compounds)

Row | SMILES | max dye-equivalent concentration
47 | CCN(CC)CCCN1C(=O)C(O)=C(C(=O)c2ccc(C)o2)C1c1ccc(C)o1 (configuration not stated) | inconclusive: 6.3 nM
48 | C=CCn1c(NCc2ccccc2)nc2ccccc21 | inactive
49 | Cc1ccc(CNc2nc3ccccc3n3nnnc23)cc1 | inconclusive: 3.2 nM
50 | Cn1c(=O)c2c(-c3ccccc3)n(Cc3cccnc3)cc2n(C)c1=O | inconclusive: 1.2 nM
51 | CCCCn1cnc2cc(NCc3cccc(OC)c3O)ccc21 | inactive
52 | CCOC(=O)c1cc(=O)n2nc(-c3ccc(C)cc3)nc2s1 | inconclusive: 7 nM
53 | CN1CCN(S(=O)(=O)c2ccc(NC(=O)c3ccc(F)cc3)cc2)CC1 | inconclusive: 1.7 nM
54 | Cc1noc(C)c1C(=O)N1CCC2(CCCN(c3ccccc3)C2)CC1 | inactive
55 | O=C(Cn1[nH]c(=O)c2ccccc2c1=O)NC1CCN(Cc2ccccc2)CC1 | inactive
56 | Cn1c(N2CCC(C(N)=O)CC2)nc2c1c(=O)n(Cc1cccc(Br)c1)c(=O)n2C | inconclusive: 1.2 nM
57 | N#Cc1ccccc1-c1nc(NCCN2CCOCC2)c2ccccc2n1 | inconclusive: 4.4 nM
58 | c1csc(-c2nc3ccccc3[nH]2)c1 | inconclusive: 1.2 nM
59 | Cc1cc2cc(CCNC(=O)c3ccc(Br)o3)c(=O)[nH]c2cc1C | inconclusive: 1.6 nM
60 | O=C(c1cnccn1)N1CCC2(CCN(Cc3ccncc3)CC2)CC1 | inactive
61 | O=C1c2ccccc2NC2CCCCCN12 (configuration not stated) | active: 540 nM
62 | O=c1c2cc(N3CCOCC3)ccc2[nH]c(=S)n1CCCN1CCCCC1 | active: 24 nM
63 | COCCn1cnnc1SCC(=O)c1ccc(S(=O)(=O)N2CCCC2)cc1 | active: 18 nM
64 | NS(=O)(=O)c1ccc(N=Nc2nc3[nH]c(=O)[nH]c(=O)c3[nH]2)cc1 | inconclusive: 5.8 nM
65 | O=c1c2c3nc4ccccc4nc3n(/N=C/c3ccco3)c2ncn1CCC1=CCCCC1 | active: 11 nM
66 | O=C(CN1C(=O)COc2ccccc21)N(CCCN1CCOCC1)CC1CC=CCC1 (configuration not stated) | inconclusive: 8.4 nM
67 | CCOC(=O)c1c(-c2ccc(C)o2)csc1NC(=O)COC(=O)c1cccs1 | inactive
68 | Cc1cc(C(F)(F)F)n2ncc(-c3ccccc3)c2n1 | active: 12 nM
69 | CN1CC[n+]2c(CN3C(=O)c4ccccc4C3=O)csc21 | inactive

Row | SMILES | max dye-equivalent concentration
70 | N#CCCn1c(=O)c(-c2ccc(F)cc2)nc2cnc(N3CCOCC3)nc21 | active: 20 nM
71 | COc1cc2[nH]c(=S)nc(NCC3CCCO3)c2cc1OC (configuration not stated) | inconclusive: 4.2 nM
72 | CCCCCNC(=O)C(C#N)c1nc2ccccc2nc1N1CCCC1 (configuration not stated) | active: 18 nM
73 | O=C(NCc1ccccc1)N(Cc1cc2cc3c(cc2[nH]c1=O)OCO3)CC1CCCO1 (configuration not stated) | active: 310 nM
74 | Cc1ccc(N2C(=O)CSC2c2cccnc2)cc1F (configuration not stated) | inconclusive: 1.4 nM
75 | O=C(OCc1cc(=O)n2c(n1)sc1ccccc12)c1ccc2c(=O)n3c(nc2c1)CCC3 | inconclusive: 1.9 nM
76 | Cc1c(C(=O)O)oc2c1C(O)CCC2 (configuration not stated) | inactive
77 | COCCNc1oc(-c2ccc(F)cc2)nc1C#N | inconclusive: 2.9 nM
78 | CN1CCN(c2c(F)cc3c(=O)c(C(=O)O)cn4c3c2SCC4)CC1 | active: 740 nM
79 | C/C(Cl)=C\Cn1c(N2CCCCCC2)nc2c1c(=O)n(C)c(=O)n2C | inconclusive: 2.2 nM
80 | CN(C)c1ccc(-c2nc(NCCN3CCOCC3)c3ccccc3n2)cc1 | inconclusive: 4 nM
81 | COc1ccccc1CNc1cc(-c2ccccc2OC)ncn1 | inactive
82 | Cc1ccccc1NC(=O)c1cccc2nccnc12 | inconclusive: 1.3 nM
83 | Cc1ccc(-n2ncc3c(=O)n(CC(=O)N4CCCCCC4)cnc32)cc1 | inconclusive: 1.9 nM
84 | CCOC(=O)C1=C(C)OC(N)=C(C#N)C1c1c(C)nn(-c2ccccc2)c1Cl (configuration not stated) | inconclusive: 6.2 nM
85 | O=C(CCCn1c(SCC(=O)NC2CCCCC2)nc2ccccc2c1=O)NCC1CCCO1 (configuration not stated) | active: 11 nM
86 | C=CCc1cccc(CNc2nc3ccccc3n2CCC)c1O | inconclusive: 5.1 nM
87 | N#Cc1ccc(NC(=O)c2cc3cc4c5c(c3oc2=N)CCCN5CCC4)cc1 | inconclusive: 4.5 nM
88 | CCCCSC1=C(C#N)C(c2ccccc2C)C(C(=O)OCC)C(=O)N1 (configuration not stated) | inactive
89 | COC(=O)c1ccccc1NC(=O)C(C)Oc1ccccc1 (configuration not stated) | inactive
90 | CCCCn1c(SCc2ccc(C(=O)OC)o2)nc2cc(S(N)(=O)=O)ccc21 | inactive
91 | CN(C)c1ccc(-c2nccc(NCc3ccccc3)n2)cc1 | inconclusive: 2.3 nM
92 | COc1ccc(C2C(C(C)=O)=C(O)C(=O)N2CCc2ccccc2)c(OC)c1 (configuration not stated) | inactive

14 compounds from above, ordered by number of heavy atoms, rising:
Row | SMILES | max dye-equivalent concentration
76 | Cc1c(C(=O)O)oc2c1C(O)CCC2 (configuration not stated) | inactive
77 | COCCNc1oc(-c2ccc(F)cc2)nc1C#N | inconclusive: 2.9 nM
74 | Cc1ccc(N2C(=O)CSC2c2cccnc2)cc1F (configuration not stated) | inconclusive: 1.4 nM
69 | CN1CC[n+]2c(CN3C(=O)c4ccccc4C3=O)csc21 | inactive
71 | COc1cc2[nH]c(=S)nc(NCC3CCCO3)c2cc1OC (configuration not stated) | inconclusive: 4.2 nM
91 | CN(C)c1ccc(-c2nccc(NCc3ccccc3)n2)cc1 | inconclusive: 2.3 nM
86 | C=CCc1cccc(CNc2nc3ccccc3n2CCC)c1O | inconclusive: 5.1 nM
78 | CN1CCN(c2c(F)cc3c(=O)c(C(=O)O)cn4c3c2SCC4)CC1 | active: 740 nM
88 | CCCCSC1=C(C#N)C(c2ccccc2C)C(C(=O)OCC)C(=O)N1 (configuration not stated) | inactive
83 | Cc1ccc(-n2ncc3c(=O)n(CC(=O)N4CCCCCC4)cnc32)cc1 | inconclusive: 1.9 nM
90 | CCCCn1c(SCc2ccc(C(=O)OC)o2)nc2cc(S(N)(=O)=O)ccc21 | inactive
87 | N#Cc1ccc(NC(=O)c2cc3cc4c5c(c3oc2=N)CCCN5CCC4)cc1 | inconclusive: 4.5 nM
73 | O=C(NCc1ccccc1)N(Cc1cc2cc3c(cc2[nH]c1=O)OCO3)CC1CCCO1 (configuration not stated) | active: 310 nM
85 | O=C(CCCn1c(SCC(=O)NC2CCCCC2)nc2ccccc2c1=O)NCC1CCCO1 (configuration not stated) | active: 11 nM
